Measurements reported in PubChem BioAssay AID720505 (Drosophila RNAi Screening Center, 2013).
The screen tested about 20,000 reagents; below is an unselected part of those with a known target gene and a result. Of all reagents, about 2,100 (10%) got an active call. 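Raw plate signals without normalisation; calls rest on control-based scores that were not deposited; replicate 2 separates called from uncalled poorly.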 Reagents against one gene are numbered here. Names joined by + are all predicted targets of the reagent. Not given: the amount of reagent, the time to read-out.

Screen: 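Fly regulators or components of the CRAC channel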 (primary screen)
Cells: Drosophila S2R+ cells
Reagent: long dsRNA against Drosophila genes
Conditions: thapsigargin (2 µM) in calcium-free buffer to empty internal stores, then 2 mM calcium added back
Detection: 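Stores emptied by 2 µM thapsigargin without calcium, then 2 mM calcium re-added; fluo-4 fluorescence followed by FLIPR in 384-well plates, per-well averaged endpoint, raw; two screen passes, some wells retested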
Reading the numbers: calcium signal and retest calcium signal: higher = more calcium entry after store depletion
Rule for the call: 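About 1500 genes called as lowering calcium entry, by varying amounts, judged against per-plate control wells with STIM1 as positive and Rho1 as negative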
Calls: active = called as lowering calcium entry; inactive = not called

gene,reagent,"calcium signal, replicate 1","calcium signal, replicate 2","retest calcium signal, replicate 1","retest calcium signal, replicate 2",outcome
CG9664,1,138,148,,,inactive
CG31266,1,164,177,,,inactive
Camta,1,131,110,,,inactive
Camta,2,147,108,104,122,inactive
Camta,3,171,115,,,inactive
Camta,4,101,124,,,inactive
Camta,5,105,146,,,inactive
CG13244,1,147,127,,,inactive
CanA1,1,176,129,,,inactive
Ge-1,1,74.7,115,,,inactive
CG11269,1,70,226,,,inactive
CG34221,1,87.8,119,,,inactive
VhaAC39-2,1,204,184,,,inactive
CG31204,1,98,124,,,inactive
Cbp20,1,144,107,,,inactive
dsd,1,121,91.3,,,inactive
dnk,1,164,102,,,inactive
Dhod,1,116,129,,,inactive
CG5614,1,147,143,7832,210,inactive
Cpr62Ba,1,92.2,119,,,inactive
CG13545,1,138,250,,,inactive
CG12236,1,141,88.3,,,inactive
CG12236,2,244,118,,,inactive
CG3163,1,184,79.8,,,inactive
CG15239,1,214,135,,,inactive
CG13685,1,92.5,74.4,,,inactive
Or23a,1,162,153,,,inactive
Jra,1,174,137,,,inactive
CG5265,1,159,161,,,inactive
GstE7,1,146,128,,,inactive
CR14798,1,68.3,132,,,inactive
CG1246,1,96,101,,,inactive
Or59b,1,93.1,186,,,inactive
bigmax,1,64.7,110,,,active
CG14186,1,101,88.6,,,inactive
CG1428,1,115,125,,,inactive
dgt2,1,87.3,82.6,,,inactive
CG7840,1,127,252,,,inactive
RpL14,1,69.6,52.4,,,active
CG3829,1,144,105,,,inactive
CG3701 (retired record),1,79.1,143,,,inactive
CG3701 (retired record),2,74.7,113,,,inactive

A run of entries from the list above, for reference:
gene,reagent,"calcium signal, replicate 1","calcium signal, replicate 2","retest calcium signal, replicate 1","retest calcium signal, replicate 2",outcome
CG34221,1,87.8,119,,,inactive
VhaAC39-2,1,204,184,,,inactive
CG31204,1,98,124,,,inactive
Cbp20,1,144,107,,,inactive
dsd,1,121,91.3,,,inactive
dnk,1,164,102,,,inactive
Dhod,1,116,129,,,inactive
CG5614,1,147,143,7832,210,inactive
Cpr62Ba,1,92.2,119,,,inactive
CG13545,1,138,250,,,inactive
CG12236,1,141,88.3,,,inactive
CG12236,2,244,118,,,inactive
CG3163,1,184,79.8,,,inactive
CG15239,1,214,135,,,inactive

Further entries follow.
gene,reagent,"calcium signal, replicate 1","calcium signal, replicate 2","retest calcium signal, replicate 1","retest calcium signal, replicate 2",outcome
Nup75,1,124,105,,,inactive
Nufip,1,97.1,108,,,inactive
CG14380,1,87.8,147,,,inactive
Debcl,1,197,121,,,inactive
Mi-2,1,87.2,120,,,inactive
CG43373,1,91.8,192,,,inactive
CG43373,2,96.2,195,,,inactive
EMC5,1,86.9,84,,,inactive
CG3860,1,137,121,,,inactive
DnaJ-1,1,84.4,99.1,,,inactive
CG5787,1,75.4,130,,,inactive
tsu,1,148,138,,,inactive
CG32006,1,178,86.1,,,inactive
klhl10,1,95.6,153,,,inactive
klhl10,2,81.3,108,,,inactive
klhl10,3,75.6,205,,,active
klhl10,4,225,80.3,,,inactive
HP5,1,114,94.4,,,inactive
GstE9,1,192,175,,,inactive
CG32318 + Klp61F + Psf1,1,90.1,68,,,inactive
HGTX,1,,,,,inactive
HGTX,2,98.3,163,,,inactive
p23,1,129,127,,,inactive
CG5886,1,100,91.2,,,inactive
Cpr5C,1,158,135,4797,126,inactive
CG32987,1,91.7,159,,,inactive
fray,1,136,135,,,inactive
ac,1,93.6,112,,,inactive
CG6870,1,72.5,100,,,active
CG10866,1,114,90.2,,,inactive
slam,1,64.7,178,,,active
Porin2,1,123,104,,,inactive
mats,1,162,158,,,inactive
bowl,1,128,192,,,inactive
CG16736,1,97.5,131,,,inactive
CG14818,1,116,145,,,inactive
CG15529,1,234,155,,,inactive
Syt4,1,112,106,,,inactive
CG7888,1,76.8,86.1,,,inactive
CG17760,1,125,213,,,inactive
Amy-d,1,133,143,,,inactive
